# Some of these results come from one statement about several compounds together.
# Test system: Alternaria solani
# Assay: Activity against early blight of tomato caused by Alternaria solani
# Format: in vivo
# Conditions: 250 ppm, sprayed to run off one day before infection; tomato plants cultivar Goldene Königin; visual rating after 5 days; untreated plants 90% infected
smiles,measurement,value
"CC1CCN(Cc2c(-c3c(F)cc(F)cc3F)c(N3CCC(C)CC3)nc3ncnn23)CC1 [Example 1a, 5-(4-methylpiperidin-1-yl)-7-(4-methylpiperidin-1-ylmethyl)-6-(2,4,6-trifluorophenyl)[1,2,4]triazolo[1,5-a]pyrimidine]",infection,at most 10%

# — US20080076785A1, “7-Aminomethyl-1,2,4-Triazolo[1,5-A]Pyrimidine Compounds And Their Use For Controlling Pathogenic Fungi” (priority 2004, published 2008)
